# Data taken from publication PMC9000499, “New Triazolyl N^N Bidentate Rh(III), Ir(III), Ru(II) and Os(II) Complexes: Synthesis and Characterization, Probing Possible Relations between Cytotoxicity with Transfer Hydrogenation Efficacy and Interaction with Model Biomolecules” (Molecules, 2022).
# Where “and” joins values, the source holds several entries; their conditions need not be identical. Identical values can stand only once.
# Tested on: kidney cancer cells (HEK293)
# Assay: MTS in vitro cytotoxicity assay, HEK293
# Format: cell-based
# Details: EC50 against BHK21 divided by EC50 against HEK293
# From the text: The absorbance is directly proportional to cell viability.
row,Compound,SI (selectivity index)
1,"Cc1c(C)c(C)[c-](C)c1C.F[B-](F)(F)F.[Cl-].[Ir+3].c1ccc(Cn2cc(-c3ccccn3)nn2)nc1 [Complex C11, [Chlorido(2-((4-(pyridine-2-yl)-(3-κN)-1,2,3-trizol-1-yl)methyl)-(2′-κN)-pyridine)(η^6-pentamethylcypentadiene)iridium(III)] tetrafluoroborate]",> 10
2,"Cc1c(C)c(C)[c-](C)c1C.F[B-](F)(F)F.[Cl-].[Ir+3].c1ccc(Cn2cc(-c3ccccn3)nn2)cc1 [Complex C5, [Chlorido(2-(1-benzyl-(3-κN)-1,2,3-triazol-4-yl)-(2′-κN)-pyridine)(η^6-pentamethylcypentadiene)iridium(III)] tetrafluoroborate]",<1
3,"Cc1ccc(C(C)C)cc1.[Cl-].[Ru+2].c1ccc(Cn2cc(-c3ccccn3)nn2)cc1.c1ccc([B-](c2ccccc2)(c2ccccc2)c2ccccc2)cc1 [Complex C2, [Chlorido(2-(1-benzyl-(3-κN)-1,2,3-triazol-4-yl)-(2′-κN)-pyridine)(η^6-p-cymene)ruthenium(II)] tetraphenylborate]",> 10 and 14
4,"Cc1ccc(C(C)C)cc1.[Cl-].[Ru+2].c1ccc(Cn2cc(-c3ccccn3)nn2)nc1.c1ccc([B-](c2ccccc2)(c2ccccc2)c2ccccc2)cc1 [Complex C7, [Chlorido(2-((4-(pyridine-2-yl)-(3-κN)-1,2,3-trizol-1-yl)methyl)-(2′-κN)-pyridine)(η^6-p-cymene)ruthenium(II)] tetraphenylborate]",4
5,"Cc1ccc(C(C)C)cc1.F[B-](F)(F)F.[Cl-].[Os+2].c1ccc(Cn2cc(-c3ccccn3)nn2)nc1 [Complex C8, [Chlorido(2-((4-(pyridine-2-yl)-(3-κN)-1,2,3-trizol-1-yl)methyl)-(2′-κN)-pyridine)(η^6-p-cymene)osmium(II)] tetrafluoroborate]",≤1
6,"CC(=O)OC[C@H]1O[C@@H]([S-])[C@H](OC(C)=O)[C@@H](OC(C)=O)[C@@H]1OC(C)=O.CCP(CC)CC.[Au+] [Auranofin, reference compound]",≤1
7,"Cc1c(C)c(C)[c-](C)c1C.F[B-](F)(F)F.[Cl-].[Rh+3].c1ccc(Cn2cc(-c3ccccn3)nn2)cc1 [Complex C4, [Chlorido(2-(1-benzyl-(3-κN)-1,2,3-triazol-4-yl)-(2′-κN)-pyridine)(η^6-pentamethylcypentadiene)rhodium(III)] tetrafluoroborate]",≤1
8,"Cc1ccc(C(C)C)cc1.F[B-](F)(F)F.[Cl-].[Ru+2].c1ccc(Cn2cc(-c3ccccn3)nn2)cc1 [Complex C1, [Chlorido(2-(1-benzyl-(3-κN)-1,2,3-triazol-4-yl)-(2′-κN)-pyridine)(η^6-p-cymene)ruthenium(II)] tetrafluoroborate]",<1
9,"Cc1ccc(C(C)C)cc1.F[B-](F)(F)F.[Cl-].[Os+2].c1ccc(Cn2cc(-c3ccccn3)nn2)cc1 [Complex C3, [Chlorido(2-(1-benzyl-(3-κN)-1,2,3-triazol-4-yl)-(2′-κN)-pyridine)(η^6-p-cymene)osmium(II)] tetrafluoroborate]",≤1
